From PMC10434054

The chains behind the UniProt entries cited, without tags or fusion partners. Residues count along the entry.
UniProt P35579: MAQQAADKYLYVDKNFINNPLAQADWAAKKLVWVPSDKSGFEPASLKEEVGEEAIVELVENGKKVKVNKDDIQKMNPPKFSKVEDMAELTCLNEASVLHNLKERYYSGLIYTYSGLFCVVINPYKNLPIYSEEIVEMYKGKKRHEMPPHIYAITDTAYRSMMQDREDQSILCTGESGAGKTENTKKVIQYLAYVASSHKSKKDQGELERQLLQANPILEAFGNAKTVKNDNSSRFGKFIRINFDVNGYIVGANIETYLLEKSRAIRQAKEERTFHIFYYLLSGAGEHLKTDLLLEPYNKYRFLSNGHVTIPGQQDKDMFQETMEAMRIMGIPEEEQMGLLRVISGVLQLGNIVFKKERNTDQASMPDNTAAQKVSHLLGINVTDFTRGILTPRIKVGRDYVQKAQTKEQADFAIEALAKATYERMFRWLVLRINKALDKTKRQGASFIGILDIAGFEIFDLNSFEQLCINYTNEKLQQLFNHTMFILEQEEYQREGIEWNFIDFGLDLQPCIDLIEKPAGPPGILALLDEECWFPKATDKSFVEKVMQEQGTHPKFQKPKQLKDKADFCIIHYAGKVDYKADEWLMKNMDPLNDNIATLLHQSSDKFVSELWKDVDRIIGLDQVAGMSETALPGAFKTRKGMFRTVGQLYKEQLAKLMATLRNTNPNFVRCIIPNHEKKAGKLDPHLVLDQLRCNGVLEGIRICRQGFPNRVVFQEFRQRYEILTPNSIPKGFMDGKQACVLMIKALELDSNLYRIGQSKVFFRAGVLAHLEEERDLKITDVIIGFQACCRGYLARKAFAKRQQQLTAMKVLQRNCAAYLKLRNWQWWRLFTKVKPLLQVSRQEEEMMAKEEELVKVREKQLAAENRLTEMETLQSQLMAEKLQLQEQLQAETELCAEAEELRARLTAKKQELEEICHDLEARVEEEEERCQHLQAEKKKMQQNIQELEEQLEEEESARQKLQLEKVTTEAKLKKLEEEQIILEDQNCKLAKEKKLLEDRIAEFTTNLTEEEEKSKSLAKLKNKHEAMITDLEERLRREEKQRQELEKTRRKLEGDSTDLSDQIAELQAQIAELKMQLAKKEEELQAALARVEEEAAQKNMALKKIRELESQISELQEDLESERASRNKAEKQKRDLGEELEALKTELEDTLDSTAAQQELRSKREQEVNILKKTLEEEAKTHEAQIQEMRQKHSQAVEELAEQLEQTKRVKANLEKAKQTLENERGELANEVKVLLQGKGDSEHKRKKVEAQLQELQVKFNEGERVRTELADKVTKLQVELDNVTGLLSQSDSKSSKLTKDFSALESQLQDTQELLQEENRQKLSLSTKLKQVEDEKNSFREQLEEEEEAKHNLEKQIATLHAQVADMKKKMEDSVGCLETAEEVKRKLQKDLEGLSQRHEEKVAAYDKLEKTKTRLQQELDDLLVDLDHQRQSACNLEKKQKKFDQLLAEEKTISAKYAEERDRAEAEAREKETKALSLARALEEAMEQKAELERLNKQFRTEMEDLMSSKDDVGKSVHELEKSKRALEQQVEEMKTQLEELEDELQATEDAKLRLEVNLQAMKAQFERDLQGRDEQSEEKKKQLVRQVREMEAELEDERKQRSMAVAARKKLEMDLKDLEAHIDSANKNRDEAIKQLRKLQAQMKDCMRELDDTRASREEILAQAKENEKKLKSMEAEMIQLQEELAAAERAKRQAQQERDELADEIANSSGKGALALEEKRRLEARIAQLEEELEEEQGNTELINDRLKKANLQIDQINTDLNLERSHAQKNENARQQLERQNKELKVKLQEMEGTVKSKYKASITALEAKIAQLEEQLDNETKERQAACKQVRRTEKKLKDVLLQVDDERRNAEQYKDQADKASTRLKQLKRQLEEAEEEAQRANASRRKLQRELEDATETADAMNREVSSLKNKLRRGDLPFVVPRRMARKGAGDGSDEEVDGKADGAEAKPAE
UniProt P30101, residues 25-505: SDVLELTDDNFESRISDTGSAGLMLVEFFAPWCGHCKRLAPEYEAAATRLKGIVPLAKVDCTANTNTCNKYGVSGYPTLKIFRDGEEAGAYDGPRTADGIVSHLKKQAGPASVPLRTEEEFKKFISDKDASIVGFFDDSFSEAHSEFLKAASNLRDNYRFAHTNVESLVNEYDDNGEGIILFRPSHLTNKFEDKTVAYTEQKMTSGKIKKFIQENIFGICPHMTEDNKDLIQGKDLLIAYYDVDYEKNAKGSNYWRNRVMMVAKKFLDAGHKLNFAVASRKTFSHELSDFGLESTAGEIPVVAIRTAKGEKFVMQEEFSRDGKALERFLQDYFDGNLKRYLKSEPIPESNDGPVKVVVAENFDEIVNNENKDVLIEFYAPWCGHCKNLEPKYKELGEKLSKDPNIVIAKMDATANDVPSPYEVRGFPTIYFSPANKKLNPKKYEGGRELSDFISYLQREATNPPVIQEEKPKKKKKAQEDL

Biological target: T1, wild-type FAM46C, C-terminally Myc-DDK tagged (human) (UniProt Q5VWP2)
T1 sequence: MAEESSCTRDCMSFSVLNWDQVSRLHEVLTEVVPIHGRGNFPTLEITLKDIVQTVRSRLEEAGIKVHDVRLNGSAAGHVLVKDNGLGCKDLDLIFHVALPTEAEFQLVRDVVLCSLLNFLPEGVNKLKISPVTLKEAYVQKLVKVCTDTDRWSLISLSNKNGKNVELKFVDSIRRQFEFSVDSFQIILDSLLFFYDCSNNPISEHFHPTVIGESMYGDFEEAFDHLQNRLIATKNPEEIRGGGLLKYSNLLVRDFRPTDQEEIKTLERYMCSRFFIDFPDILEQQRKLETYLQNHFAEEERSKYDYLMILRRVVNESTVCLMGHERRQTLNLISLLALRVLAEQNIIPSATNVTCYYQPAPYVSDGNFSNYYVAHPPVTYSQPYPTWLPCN
Assay: affinity purification with mass spectrometry; anti-FLAG antibodies on protein G-Dynabeads, 3 mg total HEK-293T lysate, 4 h at 4°C, lysis buffer 50 mM Tris-HCl pH 7.4, 150 mM NaCl, 1% Triton, 1 mM MgCl2; cells with or without lentiviral envelope and packaging plasmids; gel bands, LC-MS/MS, LFQ

| binding | Substance |
| --- | --- |
| binds | Myosin-9 (MYH9) (from UniProt P35579 1-1960) |
| binds | PDIA3 (from UniProt P30101 25-505) |

These are yes or no findings as the source states them, for the method shown. Binding seen in cells or lysates may run through a third protein. A yes stands for co-enrichment or nearness to the bait. Other partners may have been found. Sequences can lack the tags named with a protein.
